Results as given in article PMC8989981, “Negative feedback of SNRK to circ-SNRK regulates cardiac function post-myocardial infarction” (Cell Death and Differentiation, 2021).

T1: SNRK (sucrose nonfermenting 1-related kinase) (rat (endogenous in NRCMs)) (UniProt Q63553)
T1 sequence: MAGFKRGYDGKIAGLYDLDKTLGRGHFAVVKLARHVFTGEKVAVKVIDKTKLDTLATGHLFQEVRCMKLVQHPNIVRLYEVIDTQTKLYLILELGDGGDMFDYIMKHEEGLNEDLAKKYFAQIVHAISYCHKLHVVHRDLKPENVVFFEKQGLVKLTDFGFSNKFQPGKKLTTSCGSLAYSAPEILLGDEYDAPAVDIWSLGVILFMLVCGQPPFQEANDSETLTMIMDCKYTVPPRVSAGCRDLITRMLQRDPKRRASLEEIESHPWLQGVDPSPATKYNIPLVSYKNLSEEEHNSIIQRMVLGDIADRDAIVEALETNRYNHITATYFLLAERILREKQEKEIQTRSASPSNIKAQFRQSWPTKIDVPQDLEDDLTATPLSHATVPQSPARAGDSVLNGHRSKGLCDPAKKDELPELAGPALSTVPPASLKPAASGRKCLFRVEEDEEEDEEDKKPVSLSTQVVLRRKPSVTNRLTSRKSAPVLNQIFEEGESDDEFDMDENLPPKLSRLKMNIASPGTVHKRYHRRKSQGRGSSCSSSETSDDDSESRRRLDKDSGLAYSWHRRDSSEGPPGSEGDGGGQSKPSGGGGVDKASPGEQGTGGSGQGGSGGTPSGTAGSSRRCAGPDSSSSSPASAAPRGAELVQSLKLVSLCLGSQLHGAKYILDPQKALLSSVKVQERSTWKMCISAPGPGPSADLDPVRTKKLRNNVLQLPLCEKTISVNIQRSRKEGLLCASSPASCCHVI

B1: SNRK (sucrose nonfermenting 1-related kinase) (protein, UniProt Q63553 1-746)
chain: T1 sequence

How the values were obtained:
[1] = target: T1, SNRK (sucrose nonfermenting 1-related kinase) (rat (endogenous in NRCMs)); assay: co-IP; proteins of NRCMs (neonatal rat cardiomyocytes); precipitation of SNRK, NOVA1 or activated Caspase 3 and immunoblot of the partner; no co-IP method is described
[2] = target: cleaved-Caspase 3 (rat (endogenous in NRCMs)); assay: as above

Molecule	binding [1]	binding [2]
activated Caspase 6 (rat (endogenous in NRCMs)) (enzyme)	no binding	
cleaved-Caspase 3 (rat (endogenous in NRCMs)) (enzyme)	binds	
activated Caspase 7 (rat (endogenous in NRCMs)) (enzyme)	no binding	
B1		binds

No constants are given. Whether binding was seen depends on the method and setting. Binding seen in cells or lysates may run through a third protein. A result given as binding can be weak or reduced; the word gives no strength.
